Results reported in US4619942A, “Inhibition of Respiratory Syncytial virus-induced cell fusion by amidino compounds” (priority 1983, dated 1986).
Some results were stated once for a whole list of compounds, not compound by compound.

Test system: RS virus
Test: RS virus cytopathology / syncytium formation in Hep-2 cells (Table 3)

N=C(N)c1ccc2nc(Cc3nc4ccc(C(=N)N)cc4[nH]3)[nH]c2c1 [Compound 7, Bis(5-amidino-2-benzimidazolyl)methane]
Suppression of RS virus syncytia (in words): suppressed the appearance of the characteristic syncytia
